# This is one part of the list.
# Experiments:
# Assay in all cases: glycan array binding signal (z-score within array); higher = stronger binding
# Details in all cases: glycan notation: IUPAC condensed, linker removed
# [1] = biological target: Fuc(a1-2)[Gal(a1-3)]Gal(b1-4)[Fuc(a1-3)]GlcNAc(b1-3)GalNAc
# Procedure, shortened: (§1)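 Columns mapping to the same glycan were averaged after glycan names were converted to IUPAC-condensed notation. The data come from 3228 arrays in the Consortium for Functional Glycomics database, limited to those with an available protein sequence. Binding is reported as a within-array Z-score averaged across arrays of one protein sequence and across linkers.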
# [2] = biological target: Fuc(a1-2)[Gal(a1-4)]Gal(b1-4)GlcNAc
# Procedure, shortened: as §1
# [3] = biological target: Fuc(a1-2)[GalNAc(a1-3)]Gal
# Procedure, shortened: as §1
# [4] = biological target: Fuc(a1-2)[GalNAc(a1-3)]Gal(b1-3)GalNAc(a1-3)[Fuc(a1-2)]Gal(b1-4)GlcNAc
# Procedure, shortened: as §1
# [5] = biological target: Fuc(a1-2)[GalNAc(a1-3)]Gal(b1-3)GlcNAc
# Procedure, shortened: as §1
# [6] = biological target: Fuc(a1-2)[GalNAc(a1-3)]Gal(b1-3)GlcNAc(b1-2)Man(a1-3)[Fuc(a1-2)[GalNAc(a1-3)]Gal(b1-3)GlcNAc(b1-2)Man(a1-6)]Man(b1-4)GlcNAc(b1-4)GlcNAc
# Procedure, shortened: as §1
# [7] = biological target: Fuc(a1-2)[GalNAc(a1-3)]Gal(b1-3)GlcNAc(b1-2)Man(a1-3)[Fuc(a1-2)[GalNAc(a1-3)]Gal(b1-3)GlcNAc(b1-2)Man(a1-6)]Man(b1-4)GlcNAc(b1-4)[Fuc(a1-6)]GlcNAc
# Procedure, shortened: as §1
# [8] = biological target: Fuc(a1-2)[GalNAc(a1-3)]Gal(b1-3)GlcNAc(b1-3)GalNAc
# Procedure, shortened: as §1
# [9] = biological target: Fuc(a1-2)[GalNAc(a1-3)]Gal(b1-4)Glc
# Procedure, shortened: as §1
# [10] = biological target: Fuc(a1-2)[GalNAc(a1-3)]Gal(b1-4)GlcNAc
# Procedure, shortened: as §1
# [11] = biological target: Fuc(a1-2)[GalNAc(a1-3)]Gal(b1-4)GlcNAc(b1-2)Man(a1-3)[Fuc(a1-2)[GalNAc(a1-3)]Gal(b1-4)GlcNAc(b1-2)Man(a1-6)]Man(b1-4)GlcNAc(b1-4)GlcNAc
# Procedure, shortened: as §1
# [12] = biological target: Fuc(a1-2)[GalNAc(a1-3)]Gal(b1-4)GlcNAc(b1-2)Man(a1-3)[Fuc(a1-2)[GalNAc(a1-3)]Gal(b1-4)GlcNAc(b1-2)Man(a1-6)]Man(b1-4)GlcNAc(b1-4)[Fuc(a1-6)]GlcNAc
# Procedure, shortened: as §1
# [13] = biological target: Fuc(a1-2)[GalNAc(a1-3)]Gal(b1-4)GlcNAc(b1-3)Gal(b1-4)GlcNAc
# Procedure, shortened: as §1
# [14] = biological target: Fuc(a1-2)[GalNAc(a1-3)]Gal(b1-4)GlcNAc(b1-3)Gal(b1-4)GlcNAc(b1-3)Gal(b1-4)GlcNAc
# Procedure, shortened: as §1
# [15] = biological target: Fuc(a1-2)[GalNAc(a1-3)]Gal(b1-4)GlcNAc(b1-3)GalNAc
# Procedure, shortened: as §1
# [16] = biological target: Fuc(a1-2)[GalNAc(a1-3)]Gal(b1-4)[Fuc(a1-3)]GlcNAc
# Procedure, shortened: as §1
# [17] = biological target: Fuc(a1-2)[GalNAc(a1-3)]Gal(b1-4)[Fuc(a1-3)]GlcNAc(b1-3)GalNAc
# Procedure, shortened: as §1
# [18] = biological target: Fuc(a1-2)[GalNAc(a1-4)]Gal(b1-4)GlcNAc
# Procedure, shortened: as §1
# [19] = biological target: Fuc(a1-2)[GalNAc(b1-3)]Gal
# Procedure, shortened: as §1
# Fuc(a1-3)GlcNAc = biological target: Fuc(a1-3)GlcNAc
# Procedure, shortened: as §1
# [20] = biological target: Fuc(a1-3)[Gal(b1-4)]Glc6S
# Procedure, shortened: as §1
# [21] = biological target: Fuc(a1-3)[Gal(b1-4)]GlcNAc
# Procedure, shortened: as §1
# [22] = biological target: Fuc(a1-3)[Gal(b1-4)]GlcNAc(b1-2)Man(a1-3)[Fuc(a1-3)[Gal(b1-4)]GlcNAc(b1-2)Man(a1-6)]Man(b1-4)GlcNAc(b1-4)GlcNAc
# Procedure, shortened: as §1
binder,measurement,setting,value
"Flo11 (Saccharomyces cerevisiae), P08640 (protein) MQRPFLLAYLVLSLLFNSALGFPTALVPRGSSEGTSCNSIVNGCPNLDFNWHMDQQNIMQYTLDVTSVSWVQDNTYQITIHVKGKENIDLKYLWSLKIIGVTGPKGTVQLYGYNENTYLIDNPTDFTATFEVYATQDVNSCQVWMPNFQIQFEYLQGSAAQYASSWQWGTTSFDLSTGCNNYDNQGHSQTDFPGFYWNIDCDNNCGGTKSSTTTSSTSESSTTTSSTSESSTTTSSTSESSTTTSSTSESSTSSSTTAPATPTTTSCTKEKPTPPTTTSCTKEKPTPPHHDTTPCTKKKTTTSKTCTKKTTTPVPTPSSSTTESSSAPVPTPSSSTTESSSAPVTSSTTESSSAPVPTPSSSTTESSSAPVTSSTTESSSAPVTSSTTESSSAPVPTPSSSTTESSSAPVTSSTTESSSAPVTSSTTESSSAPVTSSTTESSSAPVTSSTTESSSAPVPTPSSSTTESSSAPVTSSTTESSSAPVPTPSSSTTESSSAPVTSSTTESSSAPVPTPSSSTTESSSAPAPTPSSSTTESSSAPVTSSTTESSSAPVPTPSSSTTESSSTPVTSSTTESSSAPVPTPSSSTTESSSAPVPTPSSSTTESSSAPAPTPSSSTTESSSAPVTSSTTESSSAPVPTPSSSTTESSSAPVPTPSSSTTESSSAPVPTPSSSTTESSSAPVTSSTTESSSAPVTSSTTESSSAPVPTPSSSTTESSSAPVPTPSSSTTESSSAPVPTPSSSTTESSSAPVTSSTTESSSAPVPTPSSSTTESSSAPVPTPSSSTTESSSAPVPTPSSSTTESSVAPVPTPSSSSNITSSAPSSTPFSSSTESSSVPVPTPSSSTTESSSAPVSSSTTESSVAPVPTPSSSSNITSSAPSSIPFSSTTESFSTGTTVTPSSSKYPGSQTETSVSSTTETTIVPTKTTTSVTTPSTTTITTTVCSTGTNSAGETTSGCSPKTVTTTVPTTTTTSVTTSSTTTITTTVCSTGTNSAGETTSGCSPKTITTTVPCSTSPSETASESTTTSPTTPVTTVVSTTVVTTEYSTSTKPGGEITTTFVTKNIPTTYLTTIAPTPSVTTVTNFTPTTITTTVCSTGTNSAGETTSGCSPKTVTTTVPCSTGTGEYTTEATTLVTTAVTTTVVTTESSTGTNSAGKTTTGYTTKSVPTTYVTTLAPSAPVTPATNAVPTTITTTECSAATNAAGETTSVCSAKTIVSSASAGENTAPSATTPVTTAIPTTVITTESSVGTNSAGETTTGYTTKSIPTTYITTLIPGSNGAKNYETVATATNPISIKTTSQLATTASASSVAPVVTSPSLTGPLQSASGSAVATYSVPSISSTYQGAANIKVLGNFMWLLLALPVVF",glycan array binding signal (z-score),[1],1.12
same,glycan array binding signal (z-score),[2],-0.665
same,glycan array binding signal (z-score),[3],0.297
same,glycan array binding signal (z-score),[4],1.68
same,glycan array binding signal (z-score),[5],0.142
same,glycan array binding signal (z-score),[6],-0.897
same,glycan array binding signal (z-score),[7],-0.882
same,glycan array binding signal (z-score),[8],1.14
same,glycan array binding signal (z-score),[9],-0.166
same,glycan array binding signal (z-score),[10],-0.692
same,glycan array binding signal (z-score),[11],2.17
same,glycan array binding signal (z-score),[12],-1.28
same,glycan array binding signal (z-score),[13],-0.327
same,glycan array binding signal (z-score),[14],-0.847
same,glycan array binding signal (z-score),[15],-0.713
same,glycan array binding signal (z-score),[16],0.666
same,glycan array binding signal (z-score),[17],2.06
same,glycan array binding signal (z-score),[18],0.491
same,glycan array binding signal (z-score),[19],0.001
same,glycan array binding signal (z-score),Fuc(a1-3)GlcNAc,0.066
same,glycan array binding signal (z-score),[20],0.335
same,glycan array binding signal (z-score),[21],0.513
same,glycan array binding signal (z-score),[22],0.196

# From the supplement of paper PMC8728848
